The record followed here is PMC6305323.

No constants are given. Whether binding was seen depends on the method and setting. Some binding calls cover weakened binding; strength is not graded here.

Common to all, as to assay: two-hybrid; Matchmaker Gold (Clontech), Y2H Gold yeast; JAZs as bait in pGBKT7, DELLAs as prey in pGADT7; growth on DDO (-Leu/-Trp) media with 250 ng/mL Aureobasidin A, 5 days in the dark at 30°C
For test [1], the target named is T1, OsJAZ8 (rice (Oryza sativa cv. Dongjin)) (UniProt Q6ES51).
T1 sequence: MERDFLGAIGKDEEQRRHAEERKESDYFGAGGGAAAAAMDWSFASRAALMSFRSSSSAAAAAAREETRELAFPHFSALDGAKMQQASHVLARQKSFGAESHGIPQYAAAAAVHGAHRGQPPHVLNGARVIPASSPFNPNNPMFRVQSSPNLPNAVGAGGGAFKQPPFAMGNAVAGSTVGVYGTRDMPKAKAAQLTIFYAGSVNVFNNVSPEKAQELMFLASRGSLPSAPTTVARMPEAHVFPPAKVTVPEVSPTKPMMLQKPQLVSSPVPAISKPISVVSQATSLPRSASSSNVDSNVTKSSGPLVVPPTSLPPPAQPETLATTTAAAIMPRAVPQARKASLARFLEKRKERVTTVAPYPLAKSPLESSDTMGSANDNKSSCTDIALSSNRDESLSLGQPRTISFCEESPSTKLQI

Test [2] addresses T2, OsJAZ6 (rice (Oryza sativa cv. Dongjin)) (UniProt Q8H395).
T2 sequence: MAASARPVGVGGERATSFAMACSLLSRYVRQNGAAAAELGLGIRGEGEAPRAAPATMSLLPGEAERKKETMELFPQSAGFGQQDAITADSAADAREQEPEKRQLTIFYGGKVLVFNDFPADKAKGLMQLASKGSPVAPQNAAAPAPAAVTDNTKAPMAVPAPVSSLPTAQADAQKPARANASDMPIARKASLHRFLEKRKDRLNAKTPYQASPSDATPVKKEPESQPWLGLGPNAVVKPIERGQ

Test [3] addresses T3, OsJAZ4 (rice (Oryza sativa cv. Dongjin)) (UniProt Q10QW3).
T3 sequence: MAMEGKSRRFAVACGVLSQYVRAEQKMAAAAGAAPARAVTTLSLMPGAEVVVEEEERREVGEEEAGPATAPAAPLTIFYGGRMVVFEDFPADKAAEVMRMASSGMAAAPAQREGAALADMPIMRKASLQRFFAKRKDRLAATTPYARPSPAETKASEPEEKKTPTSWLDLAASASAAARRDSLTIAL

For test [4], the target named is T4, OsJAZ10 (rice (Oryza sativa cv. Dongjin)) (UniProt Q7XPM8).
T4 sequence: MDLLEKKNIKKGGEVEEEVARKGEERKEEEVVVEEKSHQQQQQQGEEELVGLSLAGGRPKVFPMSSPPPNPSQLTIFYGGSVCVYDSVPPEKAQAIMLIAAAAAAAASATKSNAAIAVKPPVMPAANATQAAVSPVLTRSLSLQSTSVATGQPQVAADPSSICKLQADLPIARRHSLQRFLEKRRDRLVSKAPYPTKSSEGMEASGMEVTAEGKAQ

Test [5] has as its target T5, OsJAZ1 (rice (Oryza sativa cv. Dongjin)) (UniProt Q7XEZ1).
T5 sequence: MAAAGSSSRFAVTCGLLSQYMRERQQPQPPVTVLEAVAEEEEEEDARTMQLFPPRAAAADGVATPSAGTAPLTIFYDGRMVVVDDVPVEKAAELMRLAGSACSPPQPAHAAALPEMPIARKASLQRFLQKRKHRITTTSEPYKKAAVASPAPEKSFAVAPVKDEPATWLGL

B1: SLENDER RICE 1 (SLR1) (protein, UniProt Q7G7J6 1-625)
chain: MKREYQEAGGSSGGGSSADMGSCKDKVMAGAAGEEEDVDELLAALGYKVRSSDMADVAQKLEQLEMAMGMGGVSAPGAADDGFVSHLATDTVHYNPSDLSSWVESMLSELNAPLPPIPPAPPAARHASTSSTVTGGGGSGFFELPAAADSSSSTYALRPISLPVVATADPSAADSARDTKRMRTGGGSTSSSSSSSSSLGGGASRGSVVEAAPPATQGAAAANAPAVPVVVVDTQEAGIRLVHALLACAEAVQQENFAAAEALVKQIPTLAASQGGAMRKVAAYFGEALARRVYRFRPADSTLLDAAFADLLHAHFYESCPYLKFAHFTANQAILEAFAGCHRVHVVDFGIKQGMQWPALLQALALRPGGPPSFRLTGVGPPQPDETDALQQVGWKLAQFAHTIRVDFQYRGLVAATLADLEPFMLQPEGEADANEEPEVIAVNSVFELHRLLAQPGALEKVLGTVHAVRPRIVTVVEQEANHNSGSFLDRFTESLHYYSTMFDSLEGGSSGQAELSPPAAGGGGGTDQVMSEVYLGRQICNVVACEGAERTERHETLGQWRNRLGRAGFEPVHLGSNAYKQASTLLALFAGGDGYRVEEKEGCLTLGWHTRPLIATSAWRVAAA
Consider B1, for which the binding entry in test [1] was “binds”; in test [2] it was “no binding”; in test [3] it was “no binding”; in test [4], “no binding”; in test [5] it was “no binding”.

B2: SLR1-LIKE protein SLRL1 (protein, UniProt B7F9I5 1-495)
chain: MAMDTFPFQWPMDPAASSGLDAGFLPPPAAVAPDDGVGYYDPPAGADVDAAALPEFAAAFPPCAPDAAAAVLAMRREEEEVAGIRLVHLLMSCAGAIEAGDHALASAQLADSHAALAAVSAASGIGRVAVHFTTALSRRLFPSPVAPPTTDAEHAFLYHHFYEACPYLKFAHFTANQAILEAFHGCDHVHVIDFSLMQGLQWPALIQALALRPGGPPFLRITGIGPPSPTGRDELRDVGLRLADLARSVRVRFSFRGVAANSLDEVRPWMLQIAPGEAVAFNSVLQLHRLLGDPADQAPIDAVLDCVASVRPKIFTVIEQEADHNKTGFLDRFTEALFYYSAVFDSLDAASASGGAGNAMAEAYLQREICDIVCGEGAARRERHEPLSRWRDRLTRAGLSAVPLGSNALRQARMLVGLFSGEGHSVEEADGCLTLGWHGRPLFSASAWEAAGDGGGDNNNNSNSNVSGSSGSDSNNSGSSNGKSSGARDGSSVCL
Consider B2, for which the binding result in test [1], in test [2], in test [3], in test [4] and in test [5] was “no binding” each time.

B3: SLR1-LIKE (SLRL) protein SLRL2 (protein, UniProt Q6F368 1-500)
chain: MAQFGGFGGWSAMDVAAAAAAALGNVSGAVYHADPAAAVYASLVPGMAVVPGRAPPSAVQIEAARRWKELEKMALRSVNLMVTCAGAIQAGDYAAAAGSLSDAREIFAKMPTTRTGIGRVLTHFADALAERLFPAFPQSAPPPPPPRGEQRELFRGFYEAGPYLKFAHLAANQAILEAFEGCNSVHVIDFALTDGIQWPSLIQALAVRPGGPPFLRITGIGPHAAGNRDELRDVGLRLAEFARSCSVPFAFRGIAADQLDGLRPWMFQVAPGEAVAINSVLQLHRLLVDQDAAAAASFPAPIDGVLDWVASMNPRVFTVVEQEADHNKSSLLERFTNSLFYYASMFDSLEAISRHGGGDGAGNPLAEAYLQGEIADIVSREGSSRVERHEQMPRWVERLRRGGMTQLPLGATGLWQAAMQLREFSGAGFGVQENGGFLTLTWHSQRLYSASAWRATAGKKMTMMASGAADAMEESQNSNTNGGGGGSSGGGHGALNQIMQ
B3: the binding result in test [1], in test [2], in test [3], in test [4] and in test [5] was “no binding” in each case.
